This note sets out measurements from PubChem BioAssay AID2685 (National Center for Advancing Translational Sciences (NCATS), 2010).

Some of the results follow. Further columns of the screen follow, without active or inactive calls. Most of these compounds were active or inconclusive in the main read-out, so they are no random draw. The note in brackets gives the kind of curve behind each potency; many fits are weak.

The experiment is described as follows: qHTS Assay for Lipid Storage Modulators in Drosophila S3 Cells.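 For cell number change: cells counted by Cell Tracker Red CMTPX staining in the red channel.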 The following applies: BODIPY lipid droplet fluorescence, 18-24 h; for cell number change: measured here: cell count max response, cells fed with added oleic acid. The method, boiled down:
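Drosophila S3 cells loaded with oleic acid (400 uM, as added) and compounds at several concentrations; lipid droplets imaged by 488-nm laser-scanning cytometry, 500–530 nm intensity and object ratio to cell channel. Percent activity normalized to 20 uM Triacsin C.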
For orientation: qHTS replaces the single test concentration by a dilution series.

Setting [1] is: measured here: cell number channel AC50, cells fed with added oleic acid.
[2] abbreviates: measured here: lipid fluorescence (Fed channel) AC50, cells fed with added oleic acid.

The AC50 is the concentration giving half of the maximal activity seen. Low readings indicate greater potency, high ones weaker potency. `COc1ccc(S(=O)(=O)NC2CC(=O)N(c3ccc(C)c(C)c3)C2)cc1` (stereo unspecified): the half-maximal activity concentration (AC50) under setting [1] was 2.31 µM [rising, single point].

For `COc1cccc(OC)c1C(=O)Nc1ccc(Cc2ccncc2)cc1`, the cell number change was 14.7%. Besides, under setting [2], the AC50 is 1.64 µM [rising, partial curve, poor fit].

Regarding `CCOC(=O)/C=C/C(=O)OCC(=O)N1CCN(C(=O)c2ccco2)CC1`, the cell number change is -48.9%. The AC50 under setting [1] was 13 µM [falling, partial curve]. For the same compound, the concentration at half-maximal activity (AC50) under setting [2] is 5.8 µM [falling, full curve].

Regarding `CCOC(=O)CSC1=C(C#N)C(c2ccco2)C(C(=O)OCc2ccccc2)=C(C)N1` (stereo unspecified), the cell number change is -23.5%. For the same compound, the AC50 under setting [2] was 29.1 µM [falling, partial curve, poor fit].

With `CC(=O)c1c(COC(=O)c2cccnc2)nc2ccccc2[n+]1[O-]`, the cell number change amounted to 12.6%. Also, the half-maximal activity concentration (AC50) under setting [2] was 0.00461 µM [rising, full curve, poor fit].

`O=C(CSC(=S)N1CCN(c2ccccc2)CC1)Nc1nc(-c2ccccc2)c(-c2ccccc2)o1`: the cell number change was -33.3%. The AC50 under setting [1] was 32.6 µM [falling, single point]. The AC50 under setting [2] was 0.231 µM [falling, full curve].

Take `O=C(O)CNC(=O)c1ccc(N2CCOCC2)cc1[N+](=O)[O-]`: the cell number change is -48.8%. The concentration at half-maximal activity (AC50) under setting [1] was 4.11 µM [falling, full curve].

In the case of `CCN(C(=O)COc1ccc(C)nc1[N+](=O)[O-])C1CCS(=O)(=O)C1` (stereo unspecified), the cell number change is 54.3%. In addition, under setting [1], the AC50 was 29.1 µM [rising, partial curve, poor fit]. For the same compound, the AC50 under setting [2] is 23.1 µM [rising, single point].

With `COc1cccc(CNS(=O)(=O)c2ccc3c(c2)oc(=O)n3C)c1`, the cell number change was 20.5%.

With `O=C(NC1CCSc2ccccc21)c1ccc(Cl)c(S(=O)(=O)N2CCOCC2)c1` (stereo unspecified), the cell number change worked out at 29.9%. The half-maximal activity concentration (AC50) under setting [2] is 4.61 µM [rising, single point].

Take `NC(=O)c1ccccc1NC(=O)CN1CCN(Cc2ccc(Cl)cc2Cl)CC1`: the cell number change came to 16.4%. Further, the concentration at half-maximal activity (AC50) under setting [1] is 4.61 µM [rising, single point].

In the case of `Cc1nnc(SCc2nnc(-c3ccc(Cl)cc3)o2)n1-c1ccccc1`, the cell number change was -19.9%.

`C/C(=N\NC(=O)C(=O)Nc1ccc(C)cc1)c1ccncc1`: the cell number change is 5.04%.

As for `O=C(CSc1nc(NS(=O)(=O)c2ccccc2)cc(=O)[nH]1)Nc1ccccc1C(F)(F)F`, the cell number change worked out at 36.3%. Further, the AC50 under setting [1] was 0.58 µM [rising, full curve, poor fit].

Consider `OCC1(CCOc2ccccc2)CCN(Cc2cc(Cl)ccc2O)CC1`, for which the cell number change turned out to be 6.99%.

Turning to `Cc1ncoc1C(=O)Nc1ccc(Oc2ccccc2)cc1`, the AC50 under setting [2] was 0.517 µM [falling, single point].

As to `COc1ccc(S(=O)(=O)N2CCN(C(=O)CC3CC4CCC3C4)CC2)cc1` (stereo unspecified), the cell number change was -3.86%. Besides, the half-maximal activity concentration (AC50) under setting [1] was 0.82 µM [falling, single point]. For the same compound, the AC50 under setting [2] was 0.00461 µM [falling, full curve, poor fit].

As to `COc1ccc(CSC2=CS(=O)(=O)c3ccccc3N2)cc1`, the cell number change is -44.1%.

As to `CC1(C)C(N(O)C(=O)Nc2ccc(Cl)cc2)N(c2ccc(Cl)cc2)C(=O)N1CC(=O)NN` (stereo unspecified), the cell number change is -18.7%. For the same compound, the AC50 under setting [1] was 1.16 µM [falling, partial curve, poor fit].

`Cc1ccc(C(=O)O/N=C/c2c(C)nn(C)c2Cl)cc1`: the cell number change was -35%.

`CCOC(=O)c1sc(/N=C/Nc2nc(C)c(C(=O)OCC)s2)nc1C`: the cell number change amounted to 28.6%. The AC50 under setting [2] is 0.116 µM [falling, full curve, poor fit].

For `C[C@@]12CCC3[C@@](CCC4[C@@]3(C)CCC[C@@]4(C)C(=O)N3CCCCC3)(CC1=O)C2` (stereo partly specified), the cell number change turned out to be 18.2%. Moreover, the concentration at half-maximal activity (AC50) under setting [2] is 25.9 µM [rising, single point].

Turning to `C/C(=N/NC(=O)C1CCCN1C(=O)c1ccc([N+](=O)[O-])cc1)c1ccc(Br)cc1` (stereo unspecified), the cell number change was -23.2%. The half-maximal activity concentration (AC50) under setting [2] is 3.66 µM [rising, partial curve].

In the case of `CC(=O)CCN1CCOCC1`, the cell number change was -103%.

Regarding `CCOc1ccc(S(=O)(=O)Nc2cccc(C(=O)NCC(c3ccco3)N3CCCC3)c2)cc1` (stereo unspecified), the cell number change is -5.57%.

Regarding `COc1ccc(C2C(C(C)=O)=C(C)Nc3ncnn32)cc1` (stereo unspecified), the cell number change is 39.9%. Also, the concentration at half-maximal activity (AC50) under setting [2] is 29.1 µM [rising, single point].

As to `CC1(C)OC(c2ccccc2)=C/C(=C/C=C2C(=O)c3ccccc3C2=O)O1`, the cell number change was -40.5%. Also, the AC50 under setting [1] was 1.46 µM [falling, full curve]. For the same compound, the concentration at half-maximal activity (AC50) under setting [2] is 1.03 µM [falling, full curve].

As for `CC(Oc1ccccc1)c1ccnc(N)n1` (stereo unspecified), the cell number change is -6.43%. Besides, the half-maximal activity concentration (AC50) under setting [1] is 0.116 µM [falling, full curve, poor fit]. Also, the AC50 under setting [2] was 0.13 µM [falling, full curve, poor fit].

`Cc1onc(-c2ccccc2)c1C(=O)NNC(=O)c1ccccc1`: the cell number change was found to be 13.7%. Moreover, the half-maximal activity concentration (AC50) under setting [2] is 2.59 µM [rising, partial curve].

For `Cc1ccc2c(C)c(C(=O)N(C)C(C)c3ccon3)oc2c1C` (stereo unspecified), the half-maximal activity concentration (AC50) under setting [2] was 14.6 µM [rising, partial curve].

Regarding `CN(C)/C=N/S(=O)(=O)c1cccn1-c1ncc(C(F)(F)F)cc1Cl`, the half-maximal activity concentration (AC50) is, setting by setting: under setting [1], 0.00461 µM [falling, full curve, poor fit]; under setting [2], 2.06 µM [falling, partial curve].

Consider `COc1ccc(CNC(=O)CSc2ncnc3ccccc23)cc1OC`, for which the cell number change is -3.79%. Also, the AC50 under setting [1] was 0.0517 µM [falling, full curve, poor fit].

Turning to `O=C(CCCN1C(=O)c2cccnc2C1=O)N1CC(=O)N(CCc2ccccc2)C(=O)C1`, the cell number change is -12.1%. The AC50 under setting [2] was 11.6 µM [falling, partial curve, poor fit].

In the case of `Cc1ccc(C(=O)NNC(=O)CSc2nnc(CNc3ccc(F)cc3)n2C)cc1`, the cell number change was found to be 23.2%.

On to `Cc1csc(Nc2nc(N)c(C(=O)Nc3cc(Cl)ccc3F)o2)n1`, for which the cell number change worked out at 1.41%. Further, under setting [2], the AC50 is 0.13 µM [rising, full curve, poor fit].

For `CC(=O)Nc1ccc(Oc2ncccn2)c(Cl)c1`, the cell number change was -19.1%.

For the compound `S=C(c1ccc(OCc2ccccc2)cc1)N1CCCC1`, the cell number change is -46.8%. The AC50 under setting [1] is 20.6 µM [falling, single point].

Turning to `Cc1noc(C)c1COC(=O)c1ccc(S(=O)(=O)N2CCCCC2)cc1`, the concentration at half-maximal activity (AC50) by setting is: under setting [1], 2.91 µM [rising, single point]; under setting [2], 6.51 µM [rising, single point].

`COc1ccc(C(CCN2CCCC(C)C2)c2c(OC)cc(OC)c3c(-c4ccccc4)cc(=O)oc23)cc1` (stereo unspecified): the cell number change was -61%. In addition, under setting [1], the half-maximal activity concentration (AC50) was 25.9 µM [falling, single point]. Under setting [2], the concentration at half-maximal activity (AC50) is 29.1 µM [falling, single point].

For `O=C(CSc1nnc(CNc2ccc(F)cc2)n1Cc1ccccc1)N1CCOCC1`, the cell number change is -2.03%. Moreover, the half-maximal activity concentration (AC50) under setting [1] is 0.731 µM [falling, full curve]. The AC50 under setting [2] is 0.731 µM [falling, full curve].

Regarding `O=C(C1CCN(Cc2nc(Cc3cccc(F)c3)no2)CC1)N1CCOCC1`, the cell number change is -0.125%. Moreover, the AC50 under setting [2] is 6.51 µM [falling, single point].

Take `CC(=O)Oc1cccc(N2C(=O)c3cccc4c([N+](=O)[O-])ccc(c34)C2=O)c1`: the cell number change was -32.7%. For the same compound, under setting [1], the concentration at half-maximal activity (AC50) is 14.6 µM [falling, partial curve, poor fit]. The AC50 under setting [2] is 6.51 µM [falling, full curve].

In the case of `O=C(NCCS(=O)(=O)NCc1ccco1)c1ccccc1`, the cell number change was -29.3%. Moreover, under setting [1], the AC50 is 6.51 µM [falling, single point]. Under setting [2], the AC50 is 3.26 µM [falling, partial curve, poor fit].

For the compound `O=C1Nc2ccc(Cl)cc2/C1=C/C1CC=CCC1` (stereo unspecified), the cell number change is -58.9%. Besides, the concentration at half-maximal activity (AC50) under setting [1] is 20.6 µM [falling, single point]. Moreover, the AC50 under setting [2] is 20.6 µM [falling, single point].

In the case of `CCN1CCN(c2nc3sc4c(c3c3ncnn23)CC(C)CC4)CC1` (stereo unspecified), the cell number change was -0.845%. Further, the AC50 under setting [2] was 0.58 µM [falling, full curve, poor fit].

For the compound `CCN(CC)CCCn1c2c(c(SCC(=O)Nc3cccc(C)c3C)nc1=O)CCC2`, the cell number change came to 6.5%.

As for `COc1ccc(CCNC(=O)C(=O)Nc2ccc3nc4n(c(=O)c3c2)CCCCC4)cc1OC`, the cell number change was -28.4%. Moreover, the AC50 under setting [2] was 23.1 µM [falling, single point].

Turning to `O=C(Nc1ccccc1Cl)c1ccc2c(c1)N(Cc1ccc(F)cc1)C(=O)CS2=O` (stereo unspecified), the concentration at half-maximal activity (AC50) under setting [2] was 6.51 µM [rising, single point].

For `Cc1csc2nc(O)c(C(=O)NCC3CCCO3)c(=O)n12` (stereo unspecified), the cell number change is -76.7%. Besides, the AC50 under setting [1] was 23.1 µM [falling, single point].

Consider `COc1cc(/C=N/NC(=S)Nc2cccnc2)cc(OC)c1OC`, for which, under setting [2], the AC50 is 0.58 µM [rising, single point].

For the compound `NS(=O)(=O)c1cc(C(=O)NCC2CCCCC2)ccc1Cl`, the cell number change was determined as 15.7%. Further, under setting [2], the concentration at half-maximal activity (AC50) was 29.1 µM [rising, single point].

In the case of `COc1ccc(C2C(C(=O)OCC(=O)NC(C)(C)C)CCC(=O)N2c2ccc(C)cc2)cc1OC` (stereo unspecified), the cell number change is 59.8%.

In the case of `C/C(=N\NC(=O)c1c(Cl)c(C)nn1C)c1cccc(NC(=O)c2cccc(F)c2)c1`, the cell number change is -44.8%. Besides, under setting [1], the AC50 was 20 µM [falling, single point]. Besides, under setting [2], the half-maximal activity concentration (AC50) is 7.94 µM [falling, partial curve].

`CC1CN(Cc2ccccc2)c2nc3c(c(=O)n(CC(N)=O)c(=O)n3C)n2C1` (stereo unspecified): the AC50 under setting [2] was 6.51 µM [rising, single point].

In the case of `CCc1cccc(NC(=O)Cn2c(=O)oc3cc(S(=O)(=O)N4CCOCC4)ccc32)c1`, the AC50 under setting [2] was 29.1 µM [falling, single point].

Turning to `COc1ccc(CCN(C)c2ccc(C(N)=O)cc2[N+](=O)[O-])cc1OC`, the cell number change worked out at 48.8%. For the same compound, under setting [1], the AC50 is 1.84 µM [rising, full curve, poor fit].

As to `CCn1cc(/C=N/NC(=O)c2ccc(C#N)cc2F)c2ccccc21`, the cell number change was 38.4%. The concentration at half-maximal activity (AC50) under setting [1] was 14.6 µM [rising, single point]. The AC50 under setting [2] is 0.291 µM [rising, partial curve, poor fit].

For the compound `CCC(CC)C(=O)Nc1ccc(C(=O)c2ccccc2)cc1`, the cell number change was 38.7%. For the same compound, under setting [1], the half-maximal activity concentration (AC50) is 3.66 µM [rising, full curve]. For the same compound, the AC50 under setting [2] is 3.26 µM [rising, full curve].
